Source: US12486495B2, “Cardiac organoid, manufacturing method therefor, and method for evaluating drug toxicity by using same” (priority 2020, dated 2025)

Test system: cardiac organoid

pattern of contraction and relaxation (after 10 μM treatment, FIG. 13D): sporadic contraction and relaxation
Structure (SMILES): COC(=O)C1=C(C)NC(C)=C(C(=O)OC)C1c1ccccc1[N+](=O)[O-] [nifedipine]
beat rate variation after treatment (comparison of three treatment amount groups, FIG. 13B/13C): highest in a 10 μM treatment group and lowest in a 100 nM treatment group | treatment amount at which side effects in the heart in vivo may be caused (inferred from beat rate variation of the cardiac organoid): ≥ 10 µM
